# Literature values, collected in patent publication US20240132458A1, “NLRP3 INFLAMMASOME SMALL-MOLECULE INHIBITOR FOR TREATMENT OF ALZHEIMER'S DISEASE” (AJOU UNIVERSITY INDUSTRY-ACADEMIC COOPERATION FOUNDATION, priority 2021, published 2024).
# For at least one compound, name, drawing or mass did not settle the structure.
# System: NLRP3
# Conditions: approximate inhibitory concentration, literature; cited from earlier work
smiles,measurement,value
COc1ccc(/C=C/C(=O)Nc2ccccc2C(=O)O)cc1OC [Tranilast],IC50,25 to 50 µM
